The source of these data is paper doi:10.1101/2022.05.11.491529.

The chains behind the UniProt entries cited, without tags or fusion partners. Where a name states a change or a piece, a line headed by the entry shows the natural chain unless it says otherwise.
UniProt Q3U9G9: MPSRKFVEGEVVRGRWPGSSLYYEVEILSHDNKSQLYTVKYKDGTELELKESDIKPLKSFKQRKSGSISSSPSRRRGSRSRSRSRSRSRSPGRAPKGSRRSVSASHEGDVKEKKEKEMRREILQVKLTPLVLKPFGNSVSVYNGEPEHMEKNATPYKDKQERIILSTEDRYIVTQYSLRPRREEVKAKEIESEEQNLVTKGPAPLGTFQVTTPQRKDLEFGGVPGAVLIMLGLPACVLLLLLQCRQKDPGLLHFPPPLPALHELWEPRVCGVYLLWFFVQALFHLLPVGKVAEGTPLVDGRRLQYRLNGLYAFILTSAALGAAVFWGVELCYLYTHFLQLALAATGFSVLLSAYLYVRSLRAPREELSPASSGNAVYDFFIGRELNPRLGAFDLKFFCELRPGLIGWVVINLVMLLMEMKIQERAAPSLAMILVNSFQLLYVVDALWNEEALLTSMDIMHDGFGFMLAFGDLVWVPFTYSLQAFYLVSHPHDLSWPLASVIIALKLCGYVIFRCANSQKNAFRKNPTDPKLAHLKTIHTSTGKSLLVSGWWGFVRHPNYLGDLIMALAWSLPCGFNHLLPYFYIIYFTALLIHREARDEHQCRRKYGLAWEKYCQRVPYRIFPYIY
UniProt O08579: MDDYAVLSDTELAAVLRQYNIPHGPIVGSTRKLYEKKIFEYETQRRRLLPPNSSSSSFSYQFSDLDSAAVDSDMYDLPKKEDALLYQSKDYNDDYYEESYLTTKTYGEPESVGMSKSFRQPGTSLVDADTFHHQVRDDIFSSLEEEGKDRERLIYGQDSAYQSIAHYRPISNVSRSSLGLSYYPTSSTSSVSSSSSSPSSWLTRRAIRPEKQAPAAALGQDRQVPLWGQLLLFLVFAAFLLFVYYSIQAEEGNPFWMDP

Results are given in words; binding and its absence hold for the method and conditions named. Binding seen in cells or lysates may run through a third protein. A yes stands for co-enrichment or nearness to the bait. Other partners may have been found.

The target in experiment [1] is V5-tagged TbID fused to the N-terminus of LBR (mouse (cDNA library from C3H/10T1/2 cells)) (UniProt Q3U9G9). As to the kind of experiment: proximity labelling.
Experiment [2] has as its target V5-tagged TbID fused to the N-terminus of emerin (mouse (cDNA library from C3H/10T1/2 cells)) (UniProt O08579). As to the kind of experiment: proximity labelling.

B1: Sun2 (protein, UniProt Q8BJS4 1-731)
chain: MSRRSQRLTRYSQDDNDGGSSSSGASSVAGSQGTVFKDSPLRTLKRKSSNMKHLSPAPQLGPSSDSHTSYYSESVVRESYIGSPRAVSLARSALLDDHLHSEPYWSGDLRGRRRRGTGGSESSKANGLTAESKASEDFFGSSSGYSSEDDLAGYTDSDQHSSGSRLRSAASRAGSFVWTLVTFPGRLFGLLYWWIGTTWYRLTTAASLLDVFVLTRSRHFSLNLKSFLWFLLLLLLLTGLTYGAWHFYPLGLQTLQPAVVSWWAAKESRKQPEVWESRDASQHFQAEQRVLSRVHSLERRLEALAADFSSNWQKEAIRLERLELRQGAAGHGGGSSLSHEDALSLLEGLVSRREATLKEDLRRDTVAHIQEELATLRAEHHQDSEDLFKKIVQASQESEARVQQLKTEWKSMTQEAFQESSVKELGRLEAQLASLRQELAALTLKQNSVADEVGLLPQKIQAARADVESQFPDWIRQFLLGDRGARSGLLQRDEMHAQLQELENKILTKMAEMQGKSAREAAASLGQILQKEGIVGVTEEQVHRIVKQALQRYSEDRIGMVDYALESGGASVISTRCSETYETKTALLSLFGIPLWYHSQSPRVILQPDVHPGNCWAFQGPQGFAVVRLSARIRPTAVTLEHVPKALSPNSTISSAPKDFAIFGFDEDLQQEGTLLGTFAYDQDGEPIQTFYFQASKMATYQVVELRILTNWGHPEYTCIYRFRVHGEPAH
For the molecule B1, the binding result in experiment [1] and in experiment [2] was “binds” in each case.

B2: Sun1 (protein, UniProt Q9D666 1-913)
chain: MDFSRLHTYTPPQCVPENTGYTYALSSSYSSDALDFETEHKLEPVFDSPRMSRRSLRLVTTASYSSGDSQAIDSHISTSRATPAKGRETRTVKQRRSASKPAFSINHLSGKGLSSSTSHDSSCSLRSATVLRHPVLDESLIREQTKVDHFWGLDDDGDLKGGNKAATQGNGELAAEVASSNGYTCRDCRMLSARTDALTAHSAIHGTTSRVYSRDRTLKPRGVSFYLDRTLWLAKSTSSSFASFIVQLFQVVLMKLNFETYKLKGYESRAYESQSYETKSHESEAHLGHCGRMTAGELSRVDGESLCDDCKGKKHLEIHTATHSQLPQPHRVAGAMGRLCIYTGDLLVQALRRTRAAGWSVAEAVWSVLWLAVSAPGKAASGTFWWLGSGWYQFVTLISWLNVFLLTRCLRNICKVFVLLLPLLLLLGAGVSLWGQGNFFSLLPVLNWTAMQPTQRVDDSKGMHRPGPLPPSPPPKVDHKASQWPQESDMGQKVASLSAQCHNHDERLAELTVLLQKLQIRVDQVDDGREGLSLWVKNVVGQHLQEMGTIEPPDAKTDFMTFHHDHEVRLSNLEDVLRKLTEKSEAIQKELEETKLKAGSRDEEQPLLDRVQHLELELNLLKSQLSDWQHLKTSCEQAGARIQETVQLMFSEDQQGGSLEWLLEKLSSRFVSKDELQVLLHDLELKLLQNITHHITVTGQAPTSEAIVSAVNQAGISGITEAQAHIIVNNALKLYSQDKTGMVDFALESGGGSILSTRCSETYETKTALLSLFGVPLWYFSQSPRVVIQPDIYPGNCWAFKGSQGYLVVRLSMKIYPTTFTMEHIPKTLSPTGNISSAPKDFAVYGLETEYQEEGQPLGRFTYDQEGDSLQMFHTLERPDQAFQIVELRVLSNWGHPEYTCLYRFRVHGEPIQ
B2: the binding entry in experiment [1] and in experiment [2] was “binds” in each case.
